Reference: paper PMC4630631
These are yes or no findings as the source states them, for the method shown. In cells and extracts the contact can be indirect. Some binding calls cover weakened binding; strength is not graded here.

Amino acid sequences for entries named in this document (tags omitted). Residues count along the entry.
UniProt P07356: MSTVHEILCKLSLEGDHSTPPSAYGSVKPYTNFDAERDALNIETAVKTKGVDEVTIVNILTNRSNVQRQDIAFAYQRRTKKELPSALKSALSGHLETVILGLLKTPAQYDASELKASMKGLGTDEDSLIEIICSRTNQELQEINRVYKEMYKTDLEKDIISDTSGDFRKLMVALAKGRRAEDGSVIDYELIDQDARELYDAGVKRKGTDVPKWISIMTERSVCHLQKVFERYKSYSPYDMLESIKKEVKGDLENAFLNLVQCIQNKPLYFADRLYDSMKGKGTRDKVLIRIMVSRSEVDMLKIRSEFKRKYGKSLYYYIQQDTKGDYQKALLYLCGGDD
UniProt Q9QUK6, residues 26-835: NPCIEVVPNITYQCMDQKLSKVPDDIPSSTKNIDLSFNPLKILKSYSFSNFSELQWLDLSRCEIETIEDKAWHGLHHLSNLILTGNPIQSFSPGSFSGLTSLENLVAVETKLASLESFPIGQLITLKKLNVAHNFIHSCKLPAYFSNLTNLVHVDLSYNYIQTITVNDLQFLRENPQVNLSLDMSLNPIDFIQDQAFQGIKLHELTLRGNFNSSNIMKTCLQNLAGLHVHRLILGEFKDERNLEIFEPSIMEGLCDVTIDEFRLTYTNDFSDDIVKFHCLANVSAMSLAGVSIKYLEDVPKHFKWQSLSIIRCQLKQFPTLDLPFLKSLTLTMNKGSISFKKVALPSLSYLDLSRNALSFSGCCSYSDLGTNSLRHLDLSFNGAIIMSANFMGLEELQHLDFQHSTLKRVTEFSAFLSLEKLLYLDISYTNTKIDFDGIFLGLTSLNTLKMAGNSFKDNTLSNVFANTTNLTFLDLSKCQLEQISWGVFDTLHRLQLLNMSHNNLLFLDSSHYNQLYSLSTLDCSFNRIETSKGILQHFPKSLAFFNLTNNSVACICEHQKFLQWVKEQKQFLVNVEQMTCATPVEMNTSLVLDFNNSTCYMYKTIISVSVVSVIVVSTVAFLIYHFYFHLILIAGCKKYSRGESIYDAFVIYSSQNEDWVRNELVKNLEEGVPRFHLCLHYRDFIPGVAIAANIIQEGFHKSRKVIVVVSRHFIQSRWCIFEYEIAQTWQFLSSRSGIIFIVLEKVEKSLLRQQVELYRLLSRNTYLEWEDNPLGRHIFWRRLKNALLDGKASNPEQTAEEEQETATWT
UniProt Q8BJQ4: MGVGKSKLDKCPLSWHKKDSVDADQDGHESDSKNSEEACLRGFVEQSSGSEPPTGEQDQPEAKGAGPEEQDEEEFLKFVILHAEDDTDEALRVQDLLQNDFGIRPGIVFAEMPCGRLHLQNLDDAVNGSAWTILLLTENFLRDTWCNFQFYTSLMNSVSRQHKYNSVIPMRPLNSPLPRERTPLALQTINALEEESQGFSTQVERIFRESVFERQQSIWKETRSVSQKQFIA

B1: TIR domain-containing adaptor-inducing IFN-β (protein, UniProt Q80UF7 1-732)
chain: MDNPGPSLRGAFGILGALERDRLTHLKHKLGSLCSGSQESKLLHAMVLLALGQDTEARVSLESLKMNTVAQLVAHQWADMETTEGPEEPPDLSWTVARLYHLLAEENLCPASTRDMAYQVALRDFASQGDHQLGQLQNEAWDRCSSDIKGDPSGFQPLHSHQGSLQPPSASPAVTRSQPRPIDTPDWSWGHTLHSTNSTASLASHLEISQSPTLAFLSSHHGTHGPSKLCNTPLDTQEPQLVPEGCQEPEEISWPPSVETSVSLGLPHEISVPEVSPEEASPILPDALAAPDTSVHCPIECTELSTNSRSPLTSTTESVGKQWPITSQRSPQVPVGDDSLQNTTSSSPPAQPPSLQASPKLPPSPLSSASSPSSYPAPPTSTSPVLDHSETSDQKFYNFVVIHARADEQVALRIREKLETLGVPDGATFCEEFQVPGRGELHCLQDAIDHSGFTILLLTASFDCSLSLHQINHALMNSLTQSGRQDCVIPLLPLECSQAQLSPDTTRLLHSIVWLDEHSPIFARKVANTFKTQKLQAQRVRWKKAQEARTLKEQSIQLEAERQNVAAISAAYTAYVHSYRAWQAEMNKLGVAFGKNLSLGTPTPSWPGCPQPIPSHPQGGTPVFPYSPQPPSFPQPPCFPQPPSFPQPPSFPLPPVSSPQSQSFPSASSPAPQTPGPQPLIIHHAQMVQLGVNNHMWGHTGAQSSDDKTECSENPCMGPLTDQGEPLLETPE

Target: annexin A2 (mouse (endogenous in primary peritoneal macrophages)) (UniProt P07356)
Assay: co-IP; lysates of WT primary peritoneal macrophages stimulated for 0, 5 or 10 min with LPS; 1 ml lysate immunoprecipitated with 2 ug AnxA2 antibody (or IgG) and 10 ul protein A sepharose beads; blotted with anti-TLR4, anti-TRAM, anti-TRIF or anti-NAK

Row | binding | Molecule
1 | binds | Toll-like receptor 4 (from UniProt Q9QUK6 26-835)
2 | binds | TRIF-related adaptor molecule (from UniProt Q8BJQ4 1-232)
3 | binds | B1
